Measurements: patent US7229773
These are yes or no findings as the source states them, for the method shown. Binding seen in cells or lysates may run through a third protein. Some binding calls cover weakened binding; strength is not graded here.

Chains of the proteins cited; added tags and fusions are not shown. Lines headed by an entry give the natural chain unless they say otherwise; changes in a name come on top. Residues count along the entry.
UniProt Q9Z2L0, residues 2-283: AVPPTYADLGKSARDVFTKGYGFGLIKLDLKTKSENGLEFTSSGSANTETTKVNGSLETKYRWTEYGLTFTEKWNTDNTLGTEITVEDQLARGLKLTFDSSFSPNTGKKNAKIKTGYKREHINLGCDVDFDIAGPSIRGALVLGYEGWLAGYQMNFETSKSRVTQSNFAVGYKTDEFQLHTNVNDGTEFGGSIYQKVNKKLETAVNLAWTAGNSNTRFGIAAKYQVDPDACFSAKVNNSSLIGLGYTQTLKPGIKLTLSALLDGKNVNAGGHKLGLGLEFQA
UniProt Q07817: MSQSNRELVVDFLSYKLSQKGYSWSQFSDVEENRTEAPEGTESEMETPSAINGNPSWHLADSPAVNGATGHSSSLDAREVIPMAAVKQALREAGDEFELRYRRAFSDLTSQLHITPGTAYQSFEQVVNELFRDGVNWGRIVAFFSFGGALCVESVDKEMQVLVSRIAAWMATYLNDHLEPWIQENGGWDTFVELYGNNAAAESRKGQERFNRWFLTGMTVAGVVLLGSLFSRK

What was measured:
[1] = target: rat liver VDAC (voltage-dependent anion channel, mitochondrial porin) purified from rat liver mitochondria (rat) (UniProt Q9Z2L0); test: GST pull-down of purified proteins on GSH-sepharose, Western blot (recap)
[2] = target: rat liver VDAC (voltage-dependent anion channel, mitochondrial porin) purified from rat liver mitochondria (rat) (UniProt Q9Z2L0); test: GST pull-down of purified proteins on GSH-sepharose, Western blot

binding [1]: binds | binding [2]: binds
Substance: GST-Bcl-xL fusion protein (from UniProt Q07817 1-233)
